Screen size: about 330,000 compounds; about 7,700 (2.3%) were called active. The inconclusive results got no clear call from the source; some entries with a clear call stand among them for comparison. Calls follow the shape of the dose curve; as a rule, active = well fitted inhibition curve with a large enough effect; inconclusive = small, poorly fitted or top-dose-only effect, or effect the other way; inactive = flat fitted curve, though single readings scatter. Potencies of inconclusive entries are doubtful fits and often do not repeat.
Test: qHTS screen for small molecules that inhibit ELG1-dependent DNA repair in human embryonic kidney (HEK293T) cells expressing luciferase-tagged ELG1; also: nearly all actives have a fitted effect of over 55% in size
Conditions: HEK293T ELG1-luciferase reporter, luminescence, 16 h, DNA damage induced by 5-fluorouridine; activity change, negative = inhibition: at 46.1 µM (top of the series)
Outline: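 Quantitative HTS, concentration-response format. 2,000 cells/well co-treated with 5-fluorouridine and compound, 16 hr in 5% CO2 at 37 °C; ONE-Glo luminescence read after 30 min.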
% is scaled to controls: 0 for no effect and ±100 for the full control effect; potency is read from the fitted curve at half-maximal effect.

SMILES	Potency	activity change, negative = inhibition
Cc1cc(Cl)c2c(c1)[C@]1(C(=O)N2)[C@@H]2C(=O)N(Cc3ccccc3)C(=O)[C@@H]2[C@@H]2CCCN21	inconclusive: 23.1 µM [inhibitor, partial curve]	
CCN(CC(=O)Nc1c(F)cccc1F)C(=O)c1cc(C)oc1C		inactive: 14.9%
Cc1ccc(/C(N)=N/OC(=O)COc2ccccc2Cl)cc1	inconclusive: 23.1 µM [activator, partial curve]	
COc1ccccc1NC(=O)c1ccc(COc2ccc3c(c2)CCC3)cc1	inconclusive: 13 µM [activator, partial curve]	
Cc1ccc(-n2nc3c(n2)/C(=N/O)CC/C3=N\O)cc1	inconclusive: 2.59 µM [activator, partial curve]	
NS(=O)(=O)c1ccc(NC(=O)/C=C/c2ccc(S(=O)(=O)NCc3ccco3)cc2)cc1		inactive: -2.54%
CCOc1ccc(Cc2onc3c2C(=O)CCC3)cc1OCC		inactive: 1.46%
N#Cc1ccc(CSc2nnc(-c3ccncc3)o2)cc1	inconclusive: 7.3 µM [inhibitor, partial curve, poor fit]	
CCOc1cccc(C2C(C(=O)c3ccco3)=C(O)C(=O)N2c2nnc(C)s2)c1 (stereo unspecified)	inconclusive: 29.1 µM [activator, single point]	
O=S(=O)(c1ccccc1)[C@@]1(c2ccc(Br)cc2)C[C@@H]2ON=C(c3ccccc3)[C@@H]2C1		inactive: 22.2%
COc1ccc(NC(=O)CSc2ccc3c(c2)OCCO3)cc1S(N)(=O)=O		inactive: -13%
Cn1c(NC(=O)C(C)(C)Oc2ccc(Cl)cc2)cc(=O)n(C)c1=O		inactive: -3.03%
CCOC(=O)C1CCCN(CC(=O)Nc2nc(-c3ccccc3)cs2)C1 (stereo unspecified)	inconclusive: 29.1 µM [inhibitor, single point]	
COc1ccc(C)cc1Nc1cc(C)nc2ncnn12	inconclusive: 16.4 µM [activator, partial curve, poor fit]	
COc1ccc(Nc2ncc(F)c(N3CCOCC3)n2)cc1	inconclusive: 2.31 µM [activator, partial curve]	
Cc1ccc(C(=O)/C=C/Nc2cccc([N+](=O)[O-])c2)o1	inconclusive: 9.2 µM [activator, partial curve]	
O=[N+]([O-])c1cc(S(=O)(=O)N2CCOCC2)ccc1NS(=O)(=O)c1ccccc1		inactive: -5.56%
N#Cc1nc(-c2ccco2)oc1N1CCN(C(c2ccccc2)c2ccccc2)CC1		inactive: -6.69%
Cc1c(C(=O)OC(C)C)[nH]c2c1C(=O)CCC2	inconclusive: 23.1 µM [activator, partial curve, poor fit]	
CCN1C(=O)[C@H]2[C@@H](c3ccc(C)cc3)N3C(=O)N(c4cccc(Cl)c4)C(=O)[C@@]3(Cc3ccc(Cl)cc3)[C@H]2C1=O	inconclusive: 29.1 µM [activator, single point]	
COC(=O)c1sccc1NC(=O)c1cccc(OC)c1		inactive: -6.38%
CCOC(=O)Cn1nc(/C=C/c2ccccc2)ccc1=O		inactive: 17.9%
CCc1cccc2c(C(=O)COC(=O)c3nccnc3N)c[nH]c12	inconclusive: 17.8 µM [activator, partial curve, poor fit]	
COc1cc(/C=C2\SC(N3CCC(C)CC3)=NC2=O)ccc1O	inconclusive: 23.1 µM [activator, partial curve]	

SMILES	Potency	activity change, negative = inhibition
CN(C)/C=C/c1[nH]c(=O)[nH]c(=O)c1[N+](=O)[O-]	inconclusive: 29.1 µM [activator, partial curve, poor fit]	
CCOC(=O)C1CCN(Cc2cccc(OCc3ccccc3)c2)CC1		inactive: 1.43%
Cc1ccc(NC(=O)c2ccc(OCc3c(C)noc3C)cc2)c(C)c1		inactive: -13.8%
Nn1c(Cc2ccccc2)n[nH]c1=S	inconclusive: 29.1 µM [activator, partial curve, poor fit]	
CC(C)Cn1c(-c2nn(C)cc2Cl)n[nH]c1=S		inactive: -13.2%
O=C(CSc1ccccn1)Nc1ccc2ccccc2c1	inconclusive: 13 µM [activator, partial curve]	
Cc1cccc(C)c1NC(=O)CSc1nnc(-c2ccncc2)n1Cc1ccco1		inactive: -14.2%
CN(C(=O)Cn1cc(C(F)(F)F)cc(Cl)c1=O)C1CCS(=O)(=O)C1 (stereo unspecified)		inactive: 10%
c1ccc2c(c1)CCCN2c1nc(N2CCOCC2)nc(N2CCOCC2)n1	active: 8.2 µM	
CC(/C=N/NC(=O)c1ccncc1)=C\c1ccccc1	inconclusive: 16.4 µM [activator, partial curve]	
Cc1c(C(=O)Nc2cc(F)ccc2F)sc2nc3n(c(=O)c12)CCCCC3	inconclusive: 2.59 µM [activator, full curve]	
C=C1[C@@H](C)C2[C@H](Cc3ccccc3)NC(=O)[C@]23OC(=O)CC[C@H](O)CCC[C@H](C)C/C=C/[C@H]3[C@@H]1O (stereo partly specified)	inconclusive: 18.3 µM [inhibitor, partial curve, poor fit]	
CCOC(=O)C1CCN(C2=NC(=O)/C(=C/c3ccc(O)cc3)S2)CC1		inactive: 6.7%
Cc1cc(=O)oc2cc(OCCc3ccccc3)ccc12	inconclusive: 18.3 µM [activator, partial curve]	
Cc1nc(SC(C)C(=O)NC2CCCC2)c2ccccc2n1 (stereo unspecified)		inactive: -19.5%
COc1ccc(NS(=O)(=O)c2ccc(NC(=O)c3ccc(N(C)S(C)(=O)=O)cc3)cc2)cc1	inconclusive: 7.31 µM [inhibitor, partial curve]	
CN(CC(=O)NC(=O)NC1CCCCC1)Cc1ccccc1	inconclusive: 23.1 µM [activator, partial curve]	
NC(=O)C1CCCN(C(=O)c2ccc(Cl)c(S(=O)(=O)N3CCc4ccccc43)c2)C1 (stereo unspecified)		inactive: -6.38%
c1cnc(Oc2ccc3oc4ccccc4c3c2)nc1	inconclusive: 16.4 µM [activator, partial curve]	
CCC(=O)N1CCc2cc(Br)cc(S(=O)(=O)NCCN3CCCCC3CC)c21 (stereo unspecified)		inactive: 5.63%
CNC(=O)c1cc(C(=O)c2ccc(F)cc2Cl)c[nH]1	inconclusive: 20.6 µM [activator, single point]	
CC(=O)c1c(C)[nH]c(C(=O)CSc2ccc(F)cc2)c1C	inconclusive: 2.59 µM [activator, partial curve, poor fit]	
CCc1ccc(C(=O)COC(=O)CNC(=O)Cc2ccccc2)cc1		inactive: 10.6%
COc1ccc(CNC(=O)C2COc3ccccc3O2)cc1 (stereo unspecified)	inconclusive: 20.6 µM [activator, partial curve]	

SMILES	Potency	activity change, negative = inhibition
COc1ccc(C2/C=C\CN(S(=O)(=O)c3ccc(-c4ccccc4)cc3)CC(=O)N2Cc2ccc(F)cc2)cc1 (stereo unspecified)		inactive: -0.0357%
COc1ccc(OC)c(NC(=O)c2cccc3c2C(=O)N(C2CCCCC2)C3)c1	inconclusive: 13 µM [inhibitor, single point]	
COc1ccc2oc(C(=O)NCCN3CCOCC3)c(C)c2c1OC	inconclusive: 16.4 µM [activator, partial curve]	
CC(=O)Nc1nc(-c2ccc(Cl)cc2)ns1	inconclusive: 4.61 µM [activator, partial curve]	
O=C(Nc1ccc2c(c1)OCCO2)c1ccccc1F	inconclusive: 2.06 µM [activator, partial curve]	
Cc1ccc(C)c(Cn2c(O)c(N=NC(=S)Nc3ccccc3F)c3ccccc32)c1	inconclusive: 5.8 µM [inhibitor, full curve]	
COc1ccc(NC(=O)CSc2nnc3c4c(nc(-c5ccccc5)n23)CC(C)(C)OC4)cc1	active: 18.4 µM	
CCOCCCNC(=O)CN1C(=O)/C(=C/c2ccccc2C)Sc2ccccc21	inconclusive: 18.3 µM [inhibitor, single point]	
COc1ccc(NC(=O)/C=C/c2ccc(C)o2)cc1S(=O)(=O)N1CCOCC1	inconclusive: 14.6 µM [inhibitor, partial curve]	
CCC(NS(=O)(=O)c1ccc(C)cc1)C(=O)N1CCOCCOCCOCCOCC1 (stereo unspecified)		inactive: 3.26%
CCN(C(=O)COC(=O)C1CCN(S(=O)(=O)c2ccc(C)c(C)c2)CC1)C1CCS(=O)(=O)C1 (stereo unspecified)	inconclusive: 1.83 µM [activator, partial curve, poor fit]	
COc1ccc2[nH]cc(CCNS(=O)(=O)Cc3ccccc3)c2c1		inactive: -18%
COc1ccc(Nc2oc(-c3ccc(F)cc3)nc2C#N)cc1	inconclusive: 29.1 µM [activator, single point]	
CSc1nc(-c2ccccc2)c(C#N)c(=O)[nH]1		inactive: -16.3%
O=C(CCn1c(=O)oc2ccccc21)N1CCc2ccccc21	inconclusive: 8.2 µM [activator, partial curve]	
COc1cc(/C=N\NC(=O)Cn2nnc3ccccc32)cc(OC)c1OC	inconclusive: 20.6 µM [inhibitor, single point]	
CCc1ccc(S(=O)(=O)Nc2ccncc2)cc1		inactive: -4.64%
CC(=O)Oc1cccc(C(=O)Nc2ccc(NC(=O)c3cccs3)cc2)c1	inconclusive: 7.3 µM [activator, partial curve]	
Cc1ccc(NC(=O)c2ccccc2OCc2c(C)noc2C)cc1S(=O)(=O)N(C)C	inconclusive: 16.4 µM [inhibitor, single point]	
O=C(c1nnsc1S(=O)c1ccc(Cl)cc1)N1CCOCC1 (stereo unspecified)	inconclusive: 16.4 µM [activator, single point]	
C=CCn1c(SCC(=O)N2CCc3ccccc3C2)nc2sc(CC)cc2c1=O	active: 23.1 µM	
C=CCC[C@@H](Cc1ccc(F)cc1)C(=O)OC[C@@H](Cc1c[nH]c2ccccc12)NC(=O)[C@@H](CC=C)CC(=O)N[C@H](CO)Cc1ccccc1		inactive: -7.83%
COC(=O)c1scc(C)c1NC(=O)C(Cl)c1ccccc1 (stereo unspecified)		inactive: -8.38%

Looked up one by one from the list above, four records:
SMILES	Potency	activity change, negative = inhibition
CSc1nc(-c2ccccc2)c(C#N)c(=O)[nH]1		inactive: -16.3%
CCN(C(=O)COC(=O)C1CCN(S(=O)(=O)c2ccc(C)c(C)c2)CC1)C1CCS(=O)(=O)C1 (stereo unspecified)	inconclusive: 1.83 µM [activator, partial curve, poor fit]	
COc1ccc(NC(=O)CSc2nnc3c4c(nc(-c5ccccc5)n23)CC(C)(C)OC4)cc1	active: 18.4 µM	
C=CCn1c(SCC(=O)N2CCc3ccccc3C2)nc2sc(CC)cc2c1=O	active: 23.1 µM	
